{
  "source": "the supplement of paper PMC3334620",
  "note": "Whole data set: some 33,000 sequences, median “E-score (-0.5 to 0.5)” near -0.016, cut for the highest 2% near 0.3. Some of the results follow.",
  "data": [
    {"target": "T1, Yer184c (UniProt P39961)", "T1 sequence": "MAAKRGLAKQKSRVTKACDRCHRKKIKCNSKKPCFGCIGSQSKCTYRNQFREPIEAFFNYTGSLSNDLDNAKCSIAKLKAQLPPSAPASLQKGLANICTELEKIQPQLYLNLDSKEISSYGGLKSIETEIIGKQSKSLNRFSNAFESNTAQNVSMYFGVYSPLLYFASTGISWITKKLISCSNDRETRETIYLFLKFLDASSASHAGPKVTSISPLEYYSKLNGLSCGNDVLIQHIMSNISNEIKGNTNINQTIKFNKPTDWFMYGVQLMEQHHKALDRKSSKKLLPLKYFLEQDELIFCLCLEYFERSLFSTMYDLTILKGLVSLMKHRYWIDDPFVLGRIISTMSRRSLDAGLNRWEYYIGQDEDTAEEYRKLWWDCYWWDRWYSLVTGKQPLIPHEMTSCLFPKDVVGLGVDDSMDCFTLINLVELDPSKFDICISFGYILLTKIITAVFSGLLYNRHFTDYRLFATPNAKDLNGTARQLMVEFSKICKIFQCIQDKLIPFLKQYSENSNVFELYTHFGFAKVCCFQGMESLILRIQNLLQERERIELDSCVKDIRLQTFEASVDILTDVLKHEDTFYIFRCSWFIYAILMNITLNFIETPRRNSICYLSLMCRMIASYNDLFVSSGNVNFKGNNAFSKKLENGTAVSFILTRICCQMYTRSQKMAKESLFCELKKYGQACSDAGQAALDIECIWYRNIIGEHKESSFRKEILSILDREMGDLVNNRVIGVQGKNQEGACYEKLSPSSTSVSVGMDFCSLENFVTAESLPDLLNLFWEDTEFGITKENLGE", "assay": "PBM E-score (8-mer binding enrichment) (E-score (-0.5 to 0.5)); higher = stronger / more preferred TF binding", "conditions": "protein concentration: 100 nM; construct: GST-full length", "how_it_was_run": "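Using PURExpress in vitro transcription/translation, GST-tagged yeast transcription factors were made in full-length or DNA-binding-domain form. These were applied at about 100-200 nM to double-stranded universal all-10-mer Agilent arrays, and bound protein was detected with fluorescent anti-GST. Scans were normalised with masliner before the Universal PBM Analysis Suite assigned E-scores to ungapped eight-base words pooled with their reverse complements.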", "values": [
      {"sequence": "AAAATCCC", "PBM E-score": -0.0891},
      {"sequence": "CTTGCAAC", "PBM E-score": -0.0155},
      {"sequence": "ACTTGTGA", "PBM E-score": -0.0537},
      {"sequence": "AAGGTATG", "PBM E-score": -0.147},
      {"sequence": "ATTCGAGA", "PBM E-score": -0.0838},
      {"sequence": "GGTAGTAC", "PBM E-score": -0.0454},
      {"sequence": "GACATCAA", "PBM E-score": 0.188},
      {"sequence": "CTCCCGCA", "PBM E-score": 0.109},
      {"sequence": "ACCCACCC", "PBM E-score": -0.137},
      {"sequence": "TGAAAACA", "PBM E-score": 0.206},
      {"sequence": "AGAAAGCA", "PBM E-score": 0.139},
      {"sequence": "AACACAAG", "PBM E-score": -0.125},
      {"sequence": "ACTCCGTC", "PBM E-score": 0.019},
      {"sequence": "GCCCGAAC", "PBM E-score": 0.0908},
      {"sequence": "CCTCAACC", "PBM E-score": -0.118},
      {"sequence": "AGCTAGCC", "PBM E-score": -0.0869},
      {"sequence": "CTCTCGGC", "PBM E-score": 0.238},
      {"sequence": "AAGTGGGA", "PBM E-score": 0.034},
      {"sequence": "GGAAGGAA", "PBM E-score": 0.0699},
      {"sequence": "AGTCCCTC", "PBM E-score": -0.142},
      {"sequence": "ACACTTAT", "PBM E-score": -0.0747},
      {"sequence": "AATCCTCT", "PBM E-score": -0.26},
      {"sequence": "ACCGTACT", "PBM E-score": 0.0285},
      {"sequence": "CACTTCAG", "PBM E-score": -0.00724},
      {"sequence": "ACCGTTGA", "PBM E-score": 0.0134},
      {"sequence": "CTGACCCC", "PBM E-score": -0.251},
      {"sequence": "CGGCTTGC", "PBM E-score": 0.296},
      {"sequence": "AACACAGC", "PBM E-score": 0.196},
      {"sequence": "CCACTCCC", "PBM E-score": -0.173},
      {"sequence": "ATCTATAC", "PBM E-score": 0.0991},
      {"sequence": "CATATCGA", "PBM E-score": -0.0748},
      {"sequence": "CAGGCGGC", "PBM E-score": 0.0205},
      {"sequence": "GGTTGGGA", "PBM E-score": -0.163},
      {"sequence": "CTCAACAC", "PBM E-score": 0.108},
      {"sequence": "TGCCTGAA", "PBM E-score": -0.142},
      {"sequence": "AATCTCCG", "PBM E-score": 0.3},
      {"sequence": "AGGAATAG", "PBM E-score": -0.00383},
      {"sequence": "CTCGGCCC", "PBM E-score": 0.195},
      {"sequence": "CTCCGATC", "PBM E-score": 0.0345},
      {"sequence": "ACTCACAG", "PBM E-score": 0.0258},
      {"sequence": "CATTTCAA", "PBM E-score": 0.0826},
      {"sequence": "GAGGCATA", "PBM E-score": 0.0709},
      {"sequence": "GCTGGAAA", "PBM E-score": 0.133},
      {"sequence": "AAAACTTC", "PBM E-score": 0.182},
      {"sequence": "GGGATGAA", "PBM E-score": -0.0783},
      {"sequence": "AGTGCTTC", "PBM E-score": -0.0265},
      {"sequence": "ACTACTGA", "PBM E-score": 0.00278},
      {"sequence": "GAAGGTGA", "PBM E-score": 0.0602},
      {"sequence": "AGCATTAC", "PBM E-score": -0.0712},
      {"sequence": "ATAAACCA", "PBM E-score": 0.0403},
      {"sequence": "ATCGCCTC", "PBM E-score": -0.0449},
      {"sequence": "ACTGCCGG", "PBM E-score": 0.282},
      {"sequence": "AAAGTATC", "PBM E-score": 0.259},
      {"sequence": "AGTAACAT", "PBM E-score": 0.0114},
      {"sequence": "ATGGACGC", "PBM E-score": -0.0943},
      {"sequence": "AGACGTAG", "PBM E-score": -0.201},
      {"sequence": "AGGGCACA", "PBM E-score": -0.0182},
      {"sequence": "GATCCTCA", "PBM E-score": 0.0807},
      {"sequence": "AGCATGAT", "PBM E-score": -0.014},
      {"sequence": "CAGTCTCA", "PBM E-score": -0.0421},
      {"sequence": "ATGCCAGC", "PBM E-score": -0.25},
      {"sequence": "GGGATCCC", "PBM E-score": 0.129},
      {"sequence": "AGCTGACC", "PBM E-score": -0.0787},
      {"sequence": "CGCGAACG", "PBM E-score": 0.139},
      {"sequence": "CGGCCTCC", "PBM E-score": 0.00767},
      {"sequence": "GAATAGGC", "PBM E-score": 0.0411},
      {"sequence": "AAACGATC", "PBM E-score": 0.161},
      {"sequence": "ACCTACGC", "PBM E-score": -0.021},
      {"sequence": "AAGGCCGA", "PBM E-score": 0.338},
      {"sequence": "TCTCCGAA", "PBM E-score": 0.325},
      {"sequence": "AACATACC", "PBM E-score": 0.0156},
      {"sequence": "AGATTGAA", "PBM E-score": 0.115},
      {"sequence": "ACAGGATA", "PBM E-score": 0.0342},
      {"sequence": "TCATACCA", "PBM E-score": 0.0165},
      {"sequence": "GCGGTAAA", "PBM E-score": 0.281},
      {"sequence": "CCCGCCCG", "PBM E-score": 0.279},
      {"sequence": "ACCTCCCC", "PBM E-score": -0.233},
      {"sequence": "ATACCTCC", "PBM E-score": -0.249},
      {"sequence": "ACGCTCCA", "PBM E-score": -0.0667},
      {"sequence": "GCGACAAA", "PBM E-score": -0.00165},
      {"sequence": "ACACTGAA", "PBM E-score": 0.239},
      {"sequence": "ATCTCAAA", "PBM E-score": 0.117},
      {"sequence": "GAACTGCA", "PBM E-score": 0.0542},
      {"sequence": "GATATCAA", "PBM E-score": 0.176},
      {"sequence": "CAAGACTA", "PBM E-score": -0.13},
      {"sequence": "CATGGGAG", "PBM E-score": -0.126}
    ]}
  ]
}
